{"source": "the supplement of paper PMC10849652", "note": "The list shows a part of the results."}
{"compound": "Cc1ccc(C(=O)N(CCCN)[C@@H](c2nc3cc(Cl)ccc3c(=O)n2Cc2ccccc2)C(C)C)cc1 [ispinesib]", "assay": "log2 fold change, soluble protein after heating vs DMSO (PISA); higher = thermal stabilisation; K562 cells, 10 uM, 30 min; active = over 0.2 and 3.5 SD of the protein, either way, in both replicates (recomputed)", "method_in_brief": "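Thermal stability values are relative to control samples and come from duplicates. They are expressed as log2 fold changes. For measurement, K562 cells (2×10^6 cells/mL) received 10 μM compound for 30 min, and aliquots were heated for 3 min over 48°C-58°C, pooled, and extracted at 4°C in PBS with 0.5% NP-40. Soluble protein, the supernatant after 21,000xg for 90 min, was quantified by TMTpro 16plex LC-MS/MS with equalised channel sums.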"}
{"target": "CUEDC2 (UniProt Q9H467)", "log2 fold change": "inactive: 0.024"}
{"target": "DCTN3 (UniProt O75935)", "log2 fold change": "inactive: -0.015"}
{"target": "CWC25 (UniProt Q9NXE8)", "log2 fold change": "inactive: -0.149"}
{"target": "D2HGDH (UniProt Q8N465)", "log2 fold change": "inactive: 0.003"}
{"target": "CTSC (UniProt P53634)", "log2 fold change": "inactive: -0.057"}
{"target": "CTCF (UniProt P49711)", "log2 fold change": "inactive: -0.084"}
{"target": "CYP20A1 (UniProt Q6UW02)", "log2 fold change": "inactive: 0.022"}
{"target": "CTH (UniProt P32929)", "log2 fold change": "inactive: 0.082"}
{"target": "CTNNA2 (UniProt P26232)", "log2 fold change": "inactive: 0.029"}
{"target": "CTBP2 isoform 2 (UniProt P56545)", "log2 fold change": "inactive: 0.005"}
{"target": "CSRP1 (UniProt P21291)", "log2 fold change": "inactive: 0.054"}
{"target": "CSTF1 (UniProt Q05048)", "log2 fold change": "inactive: 0.107"}
{"target": "DARS (UniProt P14868)", "log2 fold change": "inactive: -0.032"}
{"target": "CXorf56 (UniProt Q9H5V9)", "log2 fold change": "inactive: 0.015"}
{"target": "CYFIP2 (UniProt Q96F07)", "log2 fold change": "inactive: -0.02"}
{"target": "DCAF15 (UniProt Q66K64)", "log2 fold change": "inactive: 0.062"}
{"target": "CTNND1 (UniProt O60716)", "log2 fold change": "inactive: -0.297"}
{"target": "DCAF1 (UniProt Q9Y4B6)", "log2 fold change": "inactive: -0.014"}
{"target": "CYBC1 (UniProt Q9BQA9)", "log2 fold change": "inactive: -0.116"}
{"target": "CTNNA1 isoform 2 (UniProt P35221)", "log2 fold change": "inactive: -0.008"}
{"target": "DBT (UniProt P11182)", "log2 fold change": "inactive: 0.009"}
{"target": "CUL5 (UniProt Q93034)", "log2 fold change": "inactive: 0.038"}
{"target": "DCTD isoform 2 (UniProt P32321)", "log2 fold change": "inactive: 0.046"}
{"target": "CTPS1 (UniProt P17812)", "log2 fold change": "inactive: -0.017"}
{"target": "CYB5R2 (UniProt Q6BCY4)", "log2 fold change": "inactive: -0.009"}
{"target": "CYB5B, A0A499FJ32", "log2 fold change": "inactive: 0.07"}
{"target": "CST3 (UniProt P01034)", "log2 fold change": "inactive: 0.159"}
{"target": "DCK (UniProt P27707)", "log2 fold change": "inactive: 0.077"}
{"target": "CTU1 (UniProt Q7Z7A3)", "log2 fold change": "inactive: -0.082"}
{"target": "CTBP1 (UniProt Q13363)", "log2 fold change": "inactive: 0.048"}
{"target": "DCPS (UniProt Q96C86)", "log2 fold change": "inactive: -0.002"}
{"target": "CSTB (UniProt P04080)", "log2 fold change": "inactive: 0.075"}
{"target": "DBN1 isoform 3 (UniProt Q16643)", "log2 fold change": "inactive: 0.071"}
{"target": "DCAKD (UniProt Q8WVC6)", "log2 fold change": "inactive: -0.256"}
{"target": "DBR1 (UniProt Q9UK59)", "log2 fold change": "inactive: 0.058"}
{"target": "CT45A10 (UniProt P0DMU9)", "log2 fold change": "inactive: -0.078"}
{"target": "DAP3 (UniProt P51398)", "log2 fold change": "inactive: -0.246"}
